Over roughly 33,000 sequences, “E-score (-0.5 to 0.5)” has its median near -8e-05; the highest 2% begin near 0.23. Some of the results follow.
Biological target: T1, Nrg2 (UniProt P38082)
T1 sequence: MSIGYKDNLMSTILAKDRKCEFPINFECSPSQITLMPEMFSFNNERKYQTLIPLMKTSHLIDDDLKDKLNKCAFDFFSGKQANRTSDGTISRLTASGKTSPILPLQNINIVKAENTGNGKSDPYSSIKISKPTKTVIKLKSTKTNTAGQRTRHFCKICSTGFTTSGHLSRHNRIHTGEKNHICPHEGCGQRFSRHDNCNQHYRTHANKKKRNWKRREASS
Assay: PBM E-score (8-mer binding enrichment) (E-score (-0.5 to 0.5)); higher = stronger / more preferred TF binding
Conditions: protein concentration: 100 nM; construct: GST-full length
Summary of the method: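 Masliner-normalised scans of fluorescent anti-GST signal were the basis for scoring. That signal came from GST-tagged yeast transcription factors applied at about 100-200 nM to double-stranded universal all-10-mer Agilent arrays on fresh or once-stripped slides. Each ungapped eight-base word, pooled with its reverse complement, received an E-score from the Universal PBM Analysis Suite.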

| Sequence | PBM E-score |
| --- | --- |
| CTGGCTGC | -0.172 |
| CGTCCCTA | -0.0138 |
| CATGATAC | 0.207 |
| CGAGATTC | 0.143 |
| CCTGGTCG | -0.13 |
| CCAAGTAG | -0.0138 |
| ATTTCCTG | 0.173 |
| GAGACCCC | 0.101 |
| GGACAGCA | -0.0537 |
| CTTTTGCC | 0.1 |
| CGAATGAA | 0.0718 |
| CGGTCCTC | -0.185 |
| CAGGTGAC | -0.0938 |
| GGTCATGA | 0.15 |
| CGAAACTA | 0.0964 |
| CCTCGCGC | -0.0472 |
| AGTGCAAT | 0.0654 |
| ATCTATGA | 0.0668 |
| AGGCCCCG | -0.277 |
| ATCTAGAG | -0.0164 |
| CGATTTGC | 0.0454 |
| CCTAGACA | -0.18 |
| CTCATAAA | -0.0542 |
| ATACCTGA | -0.0215 |
| AGAGCTCA | 0.0121 |

Quoted from the listing for reference:

| Sequence | PBM E-score |
| --- | --- |
| CGATTTGC | 0.0454 |
| CCTAGACA | -0.18 |
| CTCATAAA | -0.0542 |

(listing goes on)

| Sequence | PBM E-score |
| --- | --- |
| ACCTCATA | 0.00476 |
| ATGTGTAG | 0.0278 |
| GCGATCGC | 0.203 |
| GGAGGTAA | -0.0401 |
| CTCGTGTA | 0.0359 |
| GGCTTGAC | -0.0364 |
| ACAATGAA | 0.129 |
| AGCCGGTA | -0.122 |
| CGCTGTGA | -0.0408 |
| CCCCCCAG | -0.493 |
| GATTACAA | -0.0354 |
| GGGACAGA | -0.126 |
| ATTGGTCG | 0.137 |
| TCAAGCGA | 0.0891 |
| CGCGACGC | -0.0782 |
| CGTACTCA | 0.119 |
| CCGGCGCA | 0.0667 |
| CAAGACAC | 0.154 |
| ATAGCGTA | 0.124 |
| CTTGCAAG | 0.181 |
| CTGACGAC | 0.0249 |
| TACCCTGA | 0.265 |
| ATATGTTA | -0.112 |
| ACAGCATC | 0.147 |
| AATGAGGA | -0.141 |

Some of the entries above in a different format:
CGCTGTGA
  PBM E-score = -0.0408
CCCCCCAG
  PBM E-score = -0.493
GATTACAA
  PBM E-score = -0.0354
GGGACAGA
  PBM E-score = -0.126

Remaining list, next part

| Sequence | PBM E-score |
| --- | --- |
| CACACCTC | -0.0243 |
| CCAATAGC | -0.116 |
| CTGGACAG | -0.0205 |
| ACGTTCCC | -0.104 |
| ATTAATTG | 0.142 |
| CGTCCAAA | 0.104 |
| AACTTGTG | 0.194 |
| AGAATCTA | -0.134 |
| ATGGGAAG | -0.151 |
| AAACGATA | 0.0265 |
| ATTTTAGG | -0.0137 |
| AGAGTGAG | 0.0639 |
| CACCGACA | 0.0704 |
| AAAAGTAG | 0.0358 |
| AACGGGTA | 0.0396 |
| CGGAGGAC | -0.212 |
| ACTTGTCA | 0.0495 |
| AGCAAGAC | 0.0975 |
| AAGTACTG | -0.0715 |
| GTGCCCGA | -0.146 |
| ACACGCCG | 0.134 |
| AAACACAA | 0.0433 |
| ACATCCCG | 0.111 |
| CTTGCGTA | 0.0548 |
| AGACGCGA | -0.0959 |

| Sequence | PBM E-score |
| --- | --- |
| AACCCTGG | 0.315 |
| AGTGGGTG | 0.151 |
| CTTTTTGA | -0.079 |
| CCTTGACA | -0.0586 |
| CGCTGTTA | -0.115 |
| AATGTGTG | 0.132 |
| ACTTAGCC | 0.0119 |
| ACATATCT | 0.112 |
| GTGTCGAA | -0.0493 |
| CCACCACA | -0.114 |
| CCGACTTA | -0.0638 |
| AACAAAGG | 0.0899 |
| AGCAGGAG | -0.104 |
| AGAGTCAG | -0.0182 |
| ATTGTGTA | 0.0935 |
| AACCTAAA | 0.0784 |
| AGATGATA | -0.0384 |
| CACACTTC | -0.0329 |
| CCCGTCAA | -0.217 |
| AGTAGACA | -0.0452 |
| CATTGCCG | -0.00492 |
| GATGAATA | 0.158 |
| AAACAGCT | 0.00193 |
| GAAGCAGA | 0.0381 |
| GAAGCCAC | -0.1 |

| Sequence | PBM E-score |
| --- | --- |
| AGGTACGA | -0.137 |
| AATGAATC | 0.0329 |
| CATGAGTC | 0.038 |
| TAGAGCCA | -0.177 |
| CACTTCTG | -0.0763 |
| GCTACGAC | -0.0518 |
| AGCTGCTA | 0.0939 |
| CACTAATC | 0.22 |
| CATTTTTA | -0.0648 |
| CAGCGCGC | 0.21 |
| AACGACTC | -0.253 |
| ACCGGCAG | -0.192 |
| CTGGAAAC | -0.0687 |
| GCTACACA | -0.185 |
| CTACATTC | -0.195 |
| GCCCGTCA | -0.211 |
| GGAAAACC | 0.0753 |
| CTATTCCC | -0.0598 |
| ATTGGGAA | 0.0309 |
| GCGGCCCA | -0.0651 |
| GACGTTCA | -0.177 |
| TGCTTTAA | 0.0552 |
| CATGTTCA | 0.0756 |
| AATCCTGA | -0.0127 |
| CCGAGTGC | 0.0883 |

| Sequence | PBM E-score |
| --- | --- |
| CCCTTACA | 0.0954 |
| CGTATACA | -0.0377 |
| CACGAATC | 0.188 |
| ATCGTTCG | 0.0332 |
| GAGCCCTA | -0.149 |
| ATTAGTAA | 0.245 |
| GTTCTTGA | -0.00879 |
| GCGTCGAC | 0.222 |
| CATCCATC | 0.0146 |
| AGGGAATA | 0.245 |
| ATGCATGG | 0.0766 |
| TATATATA | 0.269 |
| AGACCTCC | -0.377 |
| CAAGCATC | 0.0334 |
| GTAAGTTA | -0.0275 |
| ATCTGGTA | -0.0223 |
| ACGTACGC | -0.158 |
| ACAAGGAC | -0.0546 |
| CGTTATTA | 0.207 |
| CTCGTCTC | 0.0913 |
| CTCTTCAG | 0.109 |
| GAAGTGGC | 0.0999 |
| CGTTTGTA | 0.0634 |
| GCCGTTTA | -0.00865 |
| CCTACGGA | -0.347 |

An excerpt of these results, as tab-separated lines.
Sequence	PBM E-score
GAGCCCTA	-0.149
ATTAGTAA	0.245
GTTCTTGA	-0.00879

Additional records

| Sequence | PBM E-score |
| --- | --- |
| CCGACATC | -0.0241 |
| ATGTTCAC | 0.083 |
| AGGCGCTG | -0.0225 |
| GAGAATCA | 0.0788 |
| TATCCGCA | 0.0982 |
| GATGTCAA | -0.0198 |
| CATGGGGA | 0.135 |
| ATTCCAGA | -0.0957 |
| AGTGCGGG | 0.14 |
| CATGCTCC | -0.19 |
| AGTACTAG | 0.0457 |
| TGGAAAAA | 0.00931 |
| CGACCAAG | -0.0234 |
| AGAACAGA | 0.00692 |
| CTTTTGAC | -0.105 |
| ACCCTTAC | 0.2 |
| CGATAAAA | -0.0976 |
| CCTCAGGC | -0.0134 |
| AACCTTGC | -0.0724 |
| CTTTCAAC | 0.052 |
| CGGACTCC | -0.0829 |
| AGGGTTAG | 0.081 |

— the supplement of paper PMC3334620
